Here are results for two compounds from PubChem BioAssay AID188 (DTP/NCI, 2004).

Shown are survivors of the treated group in tumour-free mice. Counts of survivors are from the toxicity check (mostly the fifth day) where no day follows; animals may have died later. Schedules are NCI's codes, taken here to give the interval after Q, in days (D) or hours (H), and the number of doses after X. Some doses were run more than once; the values are given in rising order.

For this test, the system named is CD2F1 mice, nontumored, toxicity/survival. Kind of test: NCI In Vivo Anticancer Drug Screen. Data for tumor model Nontumored Animals (Toxicity Test) in CD2F1 (CDF1) mice.

On to `Nc1ncn(C2OC(CO)C(O)C2O)c(=O)n1` (stereo unspecified), for which the survivor count is 8 of 8 (dose: 0.16 mg/kg/injection, schedule: Q01DX009 (ip), vehicle: saline); 8 of 8 (dose: 0.31 mg/kg/injection, schedule: Q01DX009 (ip), vehicle: saline); 8 of 8 (dose: 0.5 mg/kg/injection, schedule: Q01DX009 (ip), vehicle: saline); 8 of 8 (dose: 0.63 mg/kg/injection, schedule: Q01DX009 (ip), vehicle: saline); 6 of 6 and 8 of 8 (dose: 1.0 mg/kg/injection, schedule: Q01DX009 (ip), vehicle: saline); 8 of 8 (dose: 1.0 mg/kg/injection, schedule: Q01DX009 (oral), vehicle: saline). Moreover, the survivor count is 8 of 8 (dose: 1.25 mg/kg/injection, schedule: Q01DX009 (ip), vehicle: saline); 8 of 8 (dose: 1.75 mg/kg/injection, schedule: Q04DX003 (ip), vehicle: saline); 6 of 6 and 8 of 8 (dose: 2.0 mg/kg/injection, schedule: Q01DX009 (ip), vehicle: saline); 8 of 8 (dose: 2.0 mg/kg/injection, schedule: Q01DX009 (oral), vehicle: saline); 8 of 8 (dose: 2.5 mg/kg/injection, schedule: Q01DX009 (ip), vehicle: saline); 8 of 8 (dose: 3.5 mg/kg/injection, schedule: Q04DX003 (ip), vehicle: saline). Besides, the survivor count was 6 of 6 and 8 of 8 (dose: 4.0 mg/kg/injection, schedule: Q01DX009 (ip), vehicle: saline); 7 of 7 (dose: 4.0 mg/kg/injection, schedule: Q01DX009 (oral), vehicle: saline); 8 of 8 (dose: 5.0 mg/kg/injection, schedule: Q01DX009 (ip), vehicle: saline); 8 of 8 (dose: 7.0 mg/kg/injection, schedule: Q04DX003 (ip), vehicle: saline); 6 of 6 and 8 of 8 (dose: 8.0 mg/kg/injection, schedule: Q01DX009 (ip), vehicle: saline); 8 of 8 (dose: 8.0 mg/kg/injection, schedule: Q01DX009 (oral), vehicle: saline). In addition, the survivor count is 8 of 8 (dose: 10.0 mg/kg/injection, schedule: Q01DX009 (ip), vehicle: saline); 8 of 8 (dose: 14.0 mg/kg/injection, schedule: Q04DX003 (ip), vehicle: saline); 6 of 8 and 6 of 6 (dose: 16.0 mg/kg/injection, schedule: Q01DX009 (ip), vehicle: saline); 7 of 8 (dose: 16.0 mg/kg/injection, schedule: Q01DX009 (oral), vehicle: saline); 8 of 8 (dose: 28.0 mg/kg/injection, schedule: Q04DX003 (ip), vehicle: saline); 5 of 6 (dose: 32.0 mg/kg/injection, schedule: Q01DX009 (ip), vehicle: saline). The survivor count (dose: 32.0 mg/kg/injection, schedule: Q01DX009 (oral), vehicle: saline) is 7 of 8.

`CC(C)[C@]12O[C@H]1[C@@H]1O[C@]13[C@]1(O[C@H]1C[C@H]1C4=C(C(=O)OC4)[C@@H](O)C[C@@]13C)[C@@H]2O`: the survivor count was 8 of 8 (dose: 0.03 mg/kg/injection, schedule: Q01DX009 (ip), vehicle: saline + alcohol); 8 of 8 (dose: 0.06 mg/kg/injection, schedule: Q01DX009 (ip), vehicle: saline + alcohol); 7 of 8 and 8 of 8 (dose: 0.13 mg/kg/injection, schedule: Q01DX009 (ip), vehicle: saline + alcohol); 7 of 8 and 8 of 8 (dose: 0.25 mg/kg/injection, schedule: Q01DX009 (ip), vehicle: saline + alcohol); 3 of 8 and 8 of 8 (dose: 0.5 mg/kg/injection, schedule: Q01DX009 (ip), vehicle: saline + alcohol); 0 of 8 (dose: 1.0 mg/kg/injection, schedule: Q01DX009 (ip), vehicle: saline + alcohol). Moreover, the survivor count is 8 of 8 (dose: 8.0 micrograms/kg/injection, schedule: Q03HX024 (ip), vehicle: saline); 8 of 8 (dose: 16.0 micrograms/kg/injection, schedule: Q03HX024 (ip), vehicle: saline); 8 of 8 (dose: 30.0 micrograms/kg/injection, schedule: Q01DX009 (ip), vehicle: saline); 8 of 8 (dose: 30.0 micrograms/kg/injection, schedule: Q01DX009 (sc), vehicle: saline); 8 of 8 (dose: 30.0 micrograms/kg/injection, schedule: Q03HX024 (ip), vehicle: saline); 8 of 8 (dose: 60.0 micrograms/kg/injection, schedule: Q01DX009 (ip), vehicle: saline). For the same compound, the survivor count was 8 of 8 (dose: 60.0 micrograms/kg/injection, schedule: Q01DX009 (sc), vehicle: saline); 8 of 8 (dose: 60.0 micrograms/kg/injection, schedule: Q03HX024 (ip), vehicle: saline); 8 of 8 (dose: 130.0 micrograms/kg/injection, schedule: Q01DX009 (ip), vehicle: saline); 8 of 8 (dose: 130.0 micrograms/kg/injection, schedule: Q01DX009 (sc), vehicle: saline); 5 of 8 (dose: 130.0 micrograms/kg/injection, schedule: Q03HX024 (ip), vehicle: saline); 8 of 8 (dose: 250.0 micrograms/kg/injection, schedule: Q01DX009 (ip), vehicle: saline). For the same compound, the survivor count reads like this: (dose: 250.0 micrograms/kg/injection, schedule: Q01DX009 (sc), vehicle: saline) 8 of 8; (dose: 500.0 micrograms/kg/injection, schedule: Q01DX009 (ip), vehicle: saline) 7 of 8; (dose: 500.0 micrograms/kg/injection, schedule: Q01DX009 (sc), vehicle: saline) 8 of 8.
